The record followed here is publication doi:10.1101/598664.

Assay [1] addresses EGFR (human (endogenous in MDA-MB-468)) (UniProt P00533). Description: proximity ligation.
Assay [2] has the same target. Description: proximity ligation. The source holds these as a separate data set.

Read-outs that look alike come from different tables or passages of the source. No constants are given. Whether binding was seen depends on the method and setting. Binding seen in cells or lysates may run through a third protein. Some results given as binding are weak or reduced against the parent protein; the word gives no strength.

B1: GAB1 (protein, UniProt Q13480 1-694)
chain: MSGGEVVCSGWLRKSPPEKKLKRYAWKRRWFVLRSGRLTGDPDVLEYYKNDHAKKPIRIIDLNLCQQVDAGLTFNKKEFENSYIFDINTIDRIFYLVADSEEEMNKWVRCICDICGFNPTEEDPVKPPGSSLQAPADLPLAINTAPPSTQADSSSATLPPPYQLINVPPHLETLGIQEDPQDYLLLINCQSKKPEPTRTHADSAKSTSSETDCNDNVPSHKNPASSQSKHGMNGFFQQQMIYDSPPSRAPSASVDSSLYNLPRSYSHDVLPKVSPSSTEADGELYVFNTPSGTSSVETQMRHVSISYDIPPTPGNTYQIPRTFPEGTLGQTSKLDTIPDIPPPRPPKPHPAHDRSPVETCSIPRTASDTDSSYCIPTAGMSPSRSNTISTVDLNKLRKDASSQDCYDIPRAFPSDRSSSLEGFHNHFKVKNVLTVGSVSSEELDENYVPMNPNSPPRQHSSSFTEPIQEANYVPMTPGTFDFSSFGMQVPPPAHMGFRSSPKTPPRRPVPVADCEPPPVDRNLKPDRKVKPAPLEIKPLPEWEELQAPVRSPITRSFARDSSRFPMSPRPDSVHSTTSSSDSHDSEENYVPMNPNLSSEDPNLFGSNSLDGGSSPMIKPKGDKQVEYLDLDLDSGKSTPPRKQKSSGSGSSVADERVDYVVVDQQKTLALKSTREAWTDGRQSTESETPAKSVK
For the molecule B1, the binding entry in assay [1] is recorded as “binds”; in assay [2] it was “binds weakly”.
